In article doi:10.1101/2023.09.04.556214 one finds binding data, which are given here for six molecules.

For experiment [1], the target named is PML5 (Potentially Membrane Localized 5) wild type, full length (Arabidopsis thaliana (Col-0)) (UniProt O64790). The experiment is described as follows: co-IP.
The target in experiment [2] is PML5 D362V (MHD mutant), full length (Arabidopsis thaliana (Col-0)) (UniProt O64790). The experiment is described as follows: co-IP.
The target in experiment [3] is PML5 GCC(2,3,4)A (N-myristoylation and S-acylation site mutant), full length (Arabidopsis thaliana (Col-0)) (UniProt O64790). In words: co-IP.
Experiment [4] addresses PML5 K74R (P-loop mutant), full length (Arabidopsis thaliana (Col-0)) (UniProt O64790). The experiment is described as follows: co-IP.
Experiment [5] concerns the target PML5 CC^1-60 (N-terminal 60 amino acids), Myc- and YFP-tagged copies (Arabidopsis thaliana (Col-0)) (UniProt O64790). In words: co-IP.
Experiment [6] shares this target. The experiment is described as follows: co-IP. This is another data set of the same source.
Experiment [7] concerns the target PML5 CC^1-60 split-YFP fusions (CC^1-60-cYFP^HA and CC^1-60-nYFP^MYC) (Arabidopsis thaliana (Col-0)) (UniProt O64790). In words: split reporter.

Read-outs that look alike come from different tables or passages of the source. Results are given in words; binding and its absence hold for the method and conditions named. Binding seen in cells or lysates may run through a third protein. Some results given as binding are weak or reduced against the parent protein; the word gives no strength. For some of these results: Tags and fused reporters may be left off the sequences shown.

B1: PML5 (Potentially Membrane Localized 5) wild type, full length (protein, UniProt O64790 1-762)
chain: MGCCFSVQFSFDDQTLVRIFNFLCGNINRNSFGVEERPTQPTIGQEEMLEKAWNRLMEDRVGIMGLHGMGGVGKTTLFKKIHNKFAKMSSRFDIVIWIVVSKGAKLSKLQEDIAEKLHLCDDLWKNKNESDKATDIHRVLKGKRFVLMLDDIWEKVDLEAIGVPYPSEVNKCKVAFTTRDQKVCGEMGDHKPMQVKCLEPEDAWELFKNKVGDNTLRSDPVIVELAREVAQKCRGLPLALSVIGETMASKTMVQEWEHAIDVLTRSAAEFSNMGNKILPILKYSYDSLGDEHIKSCFLYCALFPEDDEIYNEKLIDYWICEGFIGEDQVIKRARNKGYEMLGTLTLANLLTKVGTEHVVMHDVVREMALWIASDFGKQKENFVVRARVGLHERPEAKDWGAVRRMSLMDNHIEEITCESKCSELTTLFLQSNQLKNLSGEFIRYMQKLVVLDLSYNRDFNKLPEQISGLVSLQFLDLSNTSIKQLPVGLKKLKKLTFLNLAYTVRLCSISGISRLLSLRLLRLLGSKVHGDASVLKELQKLQNLQHLAITLSAELSLNQRLANLISILGIEGFLQKPFDLSFLASMENLSSLWVKNSYFSEIKCRESETASSYLRINPKIPCFTNLSRLGLSKCHSIKDLTWILFAPNLVYLYIEDSREVGEIINKEKATNLTSITPFLKLERLILYNLPKLESIYWSPLHFPRLLIIHVLDCPKLRKLPLNATSVPLVEEFQIRMYPPGLGNELEWEDEDTKNRFVLSIKK
B1: the binding entry in experiment [1] is “binds”.

B2: PML5 D362V (MHD mutant), full length (protein, UniProt O64790 1-762)
chain: MGCCFSVQFSFDDQTLVRIFNFLCGNINRNSFGVEERPTQPTIGQEEMLEKAWNRLMEDRVGIMGLHGMGGVGKTTLFKKIHNKFAKMSSRFDIVIWIVVSKGAKLSKLQEDIAEKLHLCDDLWKNKNESDKATDIHRVLKGKRFVLMLDDIWEKVDLEAIGVPYPSEVNKCKVAFTTRDQKVCGEMGDHKPMQVKCLEPEDAWELFKNKVGDNTLRSDPVIVELAREVAQKCRGLPLALSVIGETMASKTMVQEWEHAIDVLTRSAAEFSNMGNKILPILKYSYDSLGDEHIKSCFLYCALFPEDDEIYNEKLIDYWICEGFIGEDQVIKRARNKGYEMLGTLTLANLLTKVGTEHVVMHVVVREMALWIASDFGKQKENFVVRARVGLHERPEAKDWGAVRRMSLMDNHIEEITCESKCSELTTLFLQSNQLKNLSGEFIRYMQKLVVLDLSYNRDFNKLPEQISGLVSLQFLDLSNTSIKQLPVGLKKLKKLTFLNLAYTVRLCSISGISRLLSLRLLRLLGSKVHGDASVLKELQKLQNLQHLAITLSAELSLNQRLANLISILGIEGFLQKPFDLSFLASMENLSSLWVKNSYFSEIKCRESETASSYLRINPKIPCFTNLSRLGLSKCHSIKDLTWILFAPNLVYLYIEDSREVGEIINKEKATNLTSITPFLKLERLILYNLPKLESIYWSPLHFPRLLIIHVLDCPKLRKLPLNATSVPLVEEFQIRMYPPGLGNELEWEDEDTKNRFVLSIKK
In the case of B2, in experiment [2], the binding entry is reported as “binds”.

B3: PML5 GCC(2,3,4)A (N-myristoylation and S-acylation site mutant), full length (protein, UniProt O64790 1-762)
chain: MAAAFSVQFSFDDQTLVRIFNFLCGNINRNSFGVEERPTQPTIGQEEMLEKAWNRLMEDRVGIMGLHGMGGVGKTTLFKKIHNKFAKMSSRFDIVIWIVVSKGAKLSKLQEDIAEKLHLCDDLWKNKNESDKATDIHRVLKGKRFVLMLDDIWEKVDLEAIGVPYPSEVNKCKVAFTTRDQKVCGEMGDHKPMQVKCLEPEDAWELFKNKVGDNTLRSDPVIVELAREVAQKCRGLPLALSVIGETMASKTMVQEWEHAIDVLTRSAAEFSNMGNKILPILKYSYDSLGDEHIKSCFLYCALFPEDDEIYNEKLIDYWICEGFIGEDQVIKRARNKGYEMLGTLTLANLLTKVGTEHVVMHDVVREMALWIASDFGKQKENFVVRARVGLHERPEAKDWGAVRRMSLMDNHIEEITCESKCSELTTLFLQSNQLKNLSGEFIRYMQKLVVLDLSYNRDFNKLPEQISGLVSLQFLDLSNTSIKQLPVGLKKLKKLTFLNLAYTVRLCSISGISRLLSLRLLRLLGSKVHGDASVLKELQKLQNLQHLAITLSAELSLNQRLANLISILGIEGFLQKPFDLSFLASMENLSSLWVKNSYFSEIKCRESETASSYLRINPKIPCFTNLSRLGLSKCHSIKDLTWILFAPNLVYLYIEDSREVGEIINKEKATNLTSITPFLKLERLILYNLPKLESIYWSPLHFPRLLIIHVLDCPKLRKLPLNATSVPLVEEFQIRMYPPGLGNELEWEDEDTKNRFVLSIKK
For the molecule B3, the binding result in experiment [3] is “binds”.

B4: PML5 K74R (P-loop mutant), full length (protein, UniProt O64790 1-762)
chain: MGCCFSVQFSFDDQTLVRIFNFLCGNINRNSFGVEERPTQPTIGQEEMLEKAWNRLMEDRVGIMGLHGMGGVGRTTLFKKIHNKFAKMSSRFDIVIWIVVSKGAKLSKLQEDIAEKLHLCDDLWKNKNESDKATDIHRVLKGKRFVLMLDDIWEKVDLEAIGVPYPSEVNKCKVAFTTRDQKVCGEMGDHKPMQVKCLEPEDAWELFKNKVGDNTLRSDPVIVELAREVAQKCRGLPLALSVIGETMASKTMVQEWEHAIDVLTRSAAEFSNMGNKILPILKYSYDSLGDEHIKSCFLYCALFPEDDEIYNEKLIDYWICEGFIGEDQVIKRARNKGYEMLGTLTLANLLTKVGTEHVVMHDVVREMALWIASDFGKQKENFVVRARVGLHERPEAKDWGAVRRMSLMDNHIEEITCESKCSELTTLFLQSNQLKNLSGEFIRYMQKLVVLDLSYNRDFNKLPEQISGLVSLQFLDLSNTSIKQLPVGLKKLKKLTFLNLAYTVRLCSISGISRLLSLRLLRLLGSKVHGDASVLKELQKLQNLQHLAITLSAELSLNQRLANLISILGIEGFLQKPFDLSFLASMENLSSLWVKNSYFSEIKCRESETASSYLRINPKIPCFTNLSRLGLSKCHSIKDLTWILFAPNLVYLYIEDSREVGEIINKEKATNLTSITPFLKLERLILYNLPKLESIYWSPLHFPRLLIIHVLDCPKLRKLPLNATSVPLVEEFQIRMYPPGLGNELEWEDEDTKNRFVLSIKK
Take B4: the binding result in experiment [4] is recorded as “binds”.

B5: PML5 CC^1-60 (N-terminal 60 amino acids), Myc- and YFP-tagged copies (domain or fragment, UniProt O64790 1-60)
chain: MGCCFSVQFSFDDQTLVRIFNFLCGNINRNSFGVEERPTQPTIGQEEMLEKAWNRLMEDR
In the case of B5, the binding entry in experiment [5] and in experiment [6] was “binds” each time.

B6: PML5 CC^1-60 split-YFP fusions (CC^1-60-cYFP^HA and CC^1-60-nYFP^MYC) (domain or fragment, UniProt O64790 1-60)
chain: MGCCFSVQFSFDDQTLVRIFNFLCGNINRNSFGVEERPTQPTIGQEEMLEKAWNRLMEDR
With B6, in experiment [7], the binding result is listed as “binds”.
